Where “and” joins values, the source holds several entries; their conditions need not be identical. Identical values can stand only once. Among all 400,000 compounds or so, about 13,000 (3.2%) were called active. The inconclusive results got no clear call from the source; some entries with a clear call stand among them for comparison. The call rests on the fitted dose curve; in most records, active means well fitted cell-killing curve with a large enough effect; inconclusive means small, poorly fitted or top-dose-only effect, or effect the other way; inactive means flat fitted curve, though single readings scatter. A potency beside an inconclusive call is a rough fit, not a confirmed value.
Experiment: qHTS assay for MDR1-selective chemotherapeutics: Primary screen using the drug-selected MDR subline cells KB-V1; further: nearly all actives have a fitted effect of over 60% in size
Settings: KB-V1 MDR cells viability, CellTiter-Glo, 72 h; series mostly up to 46.1 µM
Method in brief: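 Following 72 h at 37 degrees C with compound, KB-V1 cell viability was read by CellTiter-Glo luminescence, medium being phenol-red-free DMEM plus 10% FBS; concentration-response parameters came from normalized, curve-fitted qHTS data.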
Potency means the concentration at half of the fitted maximal effect.

Compound	Potency
O=[N+]([O-])c1ccc2nc(SCc3ccccc3Cl)sc2c1	inactive
O=C(Nc1ccc2c(c1)CCC2)c1cc(S(=O)(=O)Nc2ccc(F)cc2)c(Cl)cc1Cl	active: 18.4 µM
COc1cc(-c2cc[n+](C)cc2)ccc1O	inconclusive: 4.61 µM [rising, partial curve, poor fit]
NC(=S)NN=C1CCC2(CCCCC2)CC1	inactive
CCOc1ccc(CN2CCN(Cc3cnc(N4CCOCC4)s3)CC2CCO)cc1 (stereo not given)	inconclusive: 29.1 µM [cytotoxic, single point]
COc1cc(/C=C/C(=O)Nc2nnc(C(C)(C)C)s2)cc(OC)c1OC	inconclusive: 1.84 µM [cytotoxic, full curve]
ClC1(CNc2ccccc2)CCN(Cc2ccccc2)CC1	inconclusive: 18.4 µM [cytotoxic, single point]
Cc1ccccc1C(=O)NC1CCN(Cc2ccccc2)CC1	inactive
COc1ccccc1-n1c(SCC(=O)NC2CC2)nc2ccccc2c1=O	inconclusive: 29.1 µM [cytotoxic, single point]
CC(C)(C)OC(=O)NCCCC[C@H](NC(=O)c1[nH]cnc1C(=O)Nc1ccccc1)C(=O)OC(C)(C)C	inconclusive: 29.1 µM [cytotoxic, single point]
COc1ccc(C(=O)NCC2CCCO2)cc1 (stereo not given)	inactive
NC(=O)C1(Nc2ccc(Cl)cc2)CCCC1	inactive
O=C1CCC[C@@H]2C[C@@]3(C[C@@H]4CCN1[C@H]24)Nc1cc(Cl)c(Cl)cc1NC3=NCc1ccccc1	inconclusive: 16.4 µM [cytotoxic, partial curve] and inconclusive: 29.1 µM [cytotoxic, single point]
CCOc1cc(NC(=S)Nc2cccc(C)c2)c(OCC)cc1NC(=O)CC(C)C	active: 3.26 µM
CC1(C)NC(=O)N(CC(=O)OCC(=O)NC(=O)c2ccccc2)C1=O	inconclusive: 4.61 µM [rising, full curve, poor fit]
COc1ccccc1C(=O)Nc1c(C(=O)N2CCN(C)CC2)oc2ccccc12	inactive
N#Cc1c(Cl)cccc1N1CCSCC1	active: 23.1 µM
CSc1ccccc1NC(=O)CN(C)C(=O)C(C)SCc1nc2sc(C)c(C)c2c(=O)[nH]1 (stereo not given)	inconclusive: 0.651 µM [rising, full curve, poor fit]
Fc1ccccc1NC(=S)Nn1cnnc1	inconclusive: 16.4 µM [cytotoxic, partial curve, poor fit]
O=C(O)C1C2OC(C(Br)C2Br)C1C(=O)O (stereo not given)	inconclusive: 29.1 µM [rising, single point]
